Measured values from doi:10.1101/2019.12.12.874503.
These are yes or no findings as the source states them, for the method shown. In cells and extracts the contact can be indirect. Here binding means that the protein was enriched with, or labelled near, the bait; the list need not be complete. No binding means not detected with the bait. Tags and fused reporters may be left off the sequences shown.

By UniProt entry, the sequences of proteins in these tests, tags left out.
UniProt P17746: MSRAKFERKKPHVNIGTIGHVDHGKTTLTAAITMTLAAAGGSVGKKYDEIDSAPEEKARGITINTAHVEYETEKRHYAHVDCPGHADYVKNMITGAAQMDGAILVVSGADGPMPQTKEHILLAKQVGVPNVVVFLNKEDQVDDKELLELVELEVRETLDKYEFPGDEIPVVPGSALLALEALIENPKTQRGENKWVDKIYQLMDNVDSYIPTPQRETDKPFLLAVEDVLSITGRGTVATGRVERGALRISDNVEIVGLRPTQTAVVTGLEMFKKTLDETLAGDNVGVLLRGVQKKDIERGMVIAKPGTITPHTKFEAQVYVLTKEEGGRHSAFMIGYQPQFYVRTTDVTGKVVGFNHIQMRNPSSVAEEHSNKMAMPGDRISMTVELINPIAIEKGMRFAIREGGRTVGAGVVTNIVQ

Molecular target: T1, uL5c-HA (chloroplast-encoded ribosomal protein Rpl5 with C-terminal triple-HA tag) (Chlamydomonas reinhardtii) (UniProt Q8HTL1)
T1 sequence: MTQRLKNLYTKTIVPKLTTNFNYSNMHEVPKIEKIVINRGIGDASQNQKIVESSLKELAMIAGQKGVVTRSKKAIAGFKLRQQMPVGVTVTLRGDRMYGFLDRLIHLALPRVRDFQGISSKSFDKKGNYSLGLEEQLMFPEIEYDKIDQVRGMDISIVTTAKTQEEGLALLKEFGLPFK
Assay: affinity purification with mass spectrometry

Substance	binding
ALB3.1	no binding
ALB3.2	binds
CCB4	binds
CGL27 (enzyme)	binds
CGL59/Y3IP1	binds
CGL71/PYG7	binds
CGLD11	binds
CGLD22	binds
CPLD28/LPA3	binds
Cre01.g006150	binds
Cre01.g033832	binds
Cre02.g145000	binds
Cre06.g278264	binds
Cre07.g335400	binds
DLA2 (subunit of the chloroplast pyruvate dehydrogenase complex) (enzyme)	binds
EF-Tu (from UniProt P17746 1-418)	binds
EFG	binds
EFP	binds
Get3b	binds
HFLX	binds
HSP90C	binds

Substance	binding
IF1	binds
IF2	binds
IF3	binds
LEPA	binds
LPA1	binds
MAP1D (MAP-related protein) (enzyme)	binds
NCC1	binds
NCC2	binds
NTRC (enzyme)	binds
PAM68	binds
PDF1B (chloroplast variant of peptidyl deformylase) (enzyme)	binds
PNP1 (enzyme)	binds
PSRP1	binds
PSRP3	no binding
PSRP4	no binding
PUS1 (enzyme)	binds
PUS3 (enzyme)	binds
PUS8 (enzyme)	binds
PUS9 (enzyme)	binds
PUS19 (enzyme)	binds
RNAseJ (enzyme)	binds

Substance	binding
SECA1	binds
STIC2	binds
TEF30	binds
TMU3 (enzyme)	binds
co-chaperone CDJ1	binds
cpEFT	binds
cpFTSY	binds
cpNAT1 (Cre14.g614750), endogenous (enzyme)	binds
cpSECY1	binds
cpSRP54	binds
peptidyl-tRNA hydrolase (Cre02.g076600) (enzyme)	binds
peroxiredoxin PRX1 (enzyme)	binds
plastid release factor 1 (PRF1)	binds
prolyl hydroxylase PFH11 (enzyme)	binds
prolyl hydroxylase PFH17 (enzyme)	binds
prolyl hydroxylase PHX23 (enzyme)	binds
thioredoxin of the F-type	binds
thioredoxin of the X-type	binds
thioredoxin of the Y-type	binds
trigger factor (TIG1)	binds
